Measurements reported in PubChem BioAssay AID1259254 (NCATS, 2017).

Screen: 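Gene knock-downs that lead to re-replication, shown by excess G2 DNA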 (primary screen)
Cells: human HCT116 colorectal cancer cells
Knock-down reagent: single siRNA against human genes
Timing: 3 days
Detection: 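Nuclei stained with Hoechst and imaged; cell-cycle phase assigned by DNA content; G2 share scaled per plate, non-targeting siRNA 0%, GMNN siRNA 100%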
Scale: G2 robust z-score and G2 cells, % of GMNN control: higher = more G2 cells, more excess DNA replication
Active means: 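An siRNA counts as active if its G2 robust z-score lies at least 5 MADs above the screen median; here such calls match roughly 38% of GMNN control or more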
The deposit covers about 59,000 reagents; shown is a random part of them. Over the whole deposit, about 1,550 (2.6%) are marked active. 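G2 share is only a proxy for re-replication; each gene was hit by three separate siRNAs, and active genes were retested.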 A number with no mark means an inactive call. The numbers tell different reagents against one gene apart. Not all columns of the deposit are shown. The record does not give: the amount of reagent.

SLFNL1 (schlafen like 1) #1 scored G2 robust z-score 0.971; G2 cells, % of GMNN control 9.8.
SLFNL1 (schlafen like 1) #2 showed G2 robust z-score -0.547; G2 cells, % of GMNN control -0.879.
For SLFNL1 (schlafen like 1) #3, the values are G2 robust z-score -0.358; G2 cells, % of GMNN control 0.449.
Knock-down of CHMP2A (charged multivesicular body protein 2A) #1 gave: G2 robust z-score 2.54; G2 cells, % of GMNN control 20.8.
With knock-down of CHMP2A (charged multivesicular body protein 2A) #2 the results were G2 robust z-score 4.34; G2 cells, % of GMNN control 33.5.
For CHMP2A (charged multivesicular body protein 2A) #3, the entry reads G2 robust z-score 4.13; G2 cells, % of GMNN control 32.
Knock-down of ATP12A (ATPase H+/K+ transporting non-gastric alpha2 subunit) #1 gave: G2 robust z-score -0.341; G2 cells, % of GMNN control 0.57.
After knock-down of ATP12A (ATPase H+/K+ transporting non-gastric alpha2 subunit) #2, the record shows G2 robust z-score 0.132; G2 cells, % of GMNN control 3.9.
Silencing of ATP12A (ATPase H+/K+ transporting non-gastric alpha2 subunit) #3 came out at: G2 robust z-score -0.781; G2 cells, % of GMNN control -2.52.
TKTL2 (transketolase like 2) #1 scored G2 robust z-score 4.68; G2 cells, % of GMNN control 35.9.
TKTL2 (transketolase like 2) #2 gave G2 robust z-score 1.44; G2 cells, % of GMNN control 13.1.
Against TKTL2 (transketolase like 2) #3 the deposit lists G2 robust z-score 1.24; G2 cells, % of GMNN control 11.7.
Against RBP1 (retinol binding protein 1) #1, the values are G2 robust z-score -1.31; G2 cells, % of GMNN control -6.28.
Knock-down of RBP1 (retinol binding protein 1) #2 resulted in: G2 robust z-score 0.435; G2 cells, % of GMNN control 6.03.
Depletion of RBP1 (retinol binding protein 1) #3 came out at: G2 robust z-score 0.0864; G2 cells, % of GMNN control 3.58.
CNOT6L (CCR4-NOT transcription complex subunit 6 like) #1 gave G2 robust z-score -0.84; G2 cells, % of GMNN control -2.94.
Knock-down of CNOT6L (CCR4-NOT transcription complex subunit 6 like) #2 came out at: G2 robust z-score -0.0996; G2 cells, % of GMNN control 2.27.
Knock-down of CNOT6L (CCR4-NOT transcription complex subunit 6 like) #3 gave: G2 robust z-score 1.99; G2 cells, % of GMNN control 17.
PCDHB13 (protocadherin beta 13) #1 showed G2 robust z-score -0.0871; G2 cells, % of GMNN control 2.35.
Silencing of PCDHB13 (protocadherin beta 13) #2 gave: G2 robust z-score -0.917; G2 cells, % of GMNN control -3.48.
For PCDHB13 (protocadherin beta 13) #3, the values are G2 robust z-score 0.71; G2 cells, % of GMNN control 7.96.
Silencing of SLC26A4 #1 came out at: G2 robust z-score -0.785; G2 cells, % of GMNN control -2.56.
Knock-down of SLC26A4 #2 gave: G2 robust z-score -0.303; G2 cells, % of GMNN control 0.839.
Against SLC26A4 #3, the values are G2 robust z-score 2.29; G2 cells, % of GMNN control 19.1.

2 entries from above, set out differently.
target gene	reagent no.	G2 robust z-score	G2 cells, % of GMNN control
ATP12A (ATPase H+/K+ transporting non-gastric alpha2 subunit)	3	-0.781	-2.52
TKTL2 (transketolase like 2)	1	4.68	35.9
